Results as given in patent US20040191835A1, “Screening method for identifying ligands for target proteins” (priority 1993, published 2004).
Some entries share one result that the patent states for a list of compounds.

Amino acid sequences for entries named in this document (tags omitted). A change or cut given only in a name is not applied to a line headed by its entry.
UniProt P00374: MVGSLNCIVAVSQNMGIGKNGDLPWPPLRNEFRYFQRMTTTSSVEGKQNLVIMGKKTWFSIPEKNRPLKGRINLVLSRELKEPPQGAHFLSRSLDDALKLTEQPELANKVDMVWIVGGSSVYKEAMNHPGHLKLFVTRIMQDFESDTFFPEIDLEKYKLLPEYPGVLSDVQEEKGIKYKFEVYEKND

Biological target: Dihydrofolate Reductase (DHFR) (Homo sapiens, UniProt P00374)
Format: binding

nicotinamide adenine dinucleotide phosphate [NADPH]
concentrations at which ligand protects DHFR from digestion / inhibits proteolysis of DHFR: ≥ 10^−5 M
